Measurements reported in PubChem BioAssay AID1259405 (NCATS, 2018)
Test: 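Knock-downs that lift recombinant protein yield in hamster ovary cells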 (primary screen). Cells: Chinese hamster CHO-K1 ovary cells with stable secreted eGFP expression. Reagent: single siRNA against mouse genes, 0.8 pmol siRNA per well (2 µl of 400 nM stock). Time to read-out: 3 days. Measured: 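Percent of the per-plate non-targeting control median for intracellular GFP per well by laser scanning cytometry and for cell viability by ATP luminescence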. Scale: GFP, % of control: higher = more GFP per well, higher productivity. Rule for the call: 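a knock-down is called active if GFP reaches 120% or more of non-targeting control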.
In all, the deposit lists about 50,000 reagents; shown is an unselected part. Of all reagents, about 4,000 (8%) got an active call. 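Mouse siRNA library applied to hamster cells; one well for each siRNA.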 Reagents against one gene are numbered here. Not all columns of the deposit are shown. No sequences are given here.

GFP, % of control, by target gene and reagent
Sod3 (GeneID 20657): #1 96 inactive; #2 57 inactive; #3 110 inactive
Gys2 (GeneID 232493): #1 156 active; #2 147 active; #3 70.7 inactive
Serpina3h (GeneID 546546): #1 90.1 inactive; #2 52.7 inactive; #3 76.9 inactive
Tnfrsf17 (GeneID 21935): #1 76.3 inactive; #2 76.9 inactive; #3 113 inactive
C730034F03Rik (GeneID 105246016): #1 70.9 inactive; #2 50.1 inactive; #3 114 inactive
Th (GeneID 21823): #1 48.7 inactive; #2 63.8 inactive; #3 116 inactive
Tafa1 (GeneID 320265): #1 75.5 inactive; #2 39.3 inactive; #3 67.1 inactive
Krt8 (GeneID 16691): #1 86.5 inactive; #2 81 inactive
Ccdc157 (GeneID 216516): #1 150 active; #2 118 inactive; #3 111 inactive

A stretch taken from the entries so far, as a working copy:
GFP, % of control, by target gene and reagent
Sod3 (GeneID 20657): #2 57 inactive; #3 110 inactive
Gys2 (GeneID 232493): #1 156 active; #2 147 active; #3 70.7 inactive
Serpina3h (GeneID 546546): #1 90.1 inactive; #2 52.7 inactive; #3 76.9 inactive
Tnfrsf17 (GeneID 21935): #1 76.3 inactive

Next entries follow:
GFP, % of control, by target gene and reagent
Ppfibp1 (GeneID 67533): #1 82.1 inactive; #2 64.5 inactive; #3 81.9 inactive
Prune2 (GeneID 353211): #1 66 inactive; #2 94 inactive; #3 77.1 inactive
Gdnf (GeneID 14573): #1 86.8 inactive; #2 115 inactive; #3 72.1 inactive
Strip1 (GeneID 229707): #1 56.4 inactive; #2 64.2 inactive; #3 53.8 inactive
Ep300 (GeneID 328572): #1 46.1 inactive; #2 309 active; #3 22.3 inactive
Ctf2 (GeneID 244218): #1 92.6 inactive; #2 51.9 inactive; #3 113 inactive
H3c1 (GeneID 360198): #1 76.7 inactive; #2 74.6 inactive; #3 52.2 inactive
Hnrnpc (GeneID 15381): #1 88.6 inactive; #2 102 inactive; #3 105 inactive
Adam34 (GeneID 252866): #1 74.3 inactive; #2 66.9 inactive; #3 74.3 inactive
Rasd1 (GeneID 19416): #1 82.5 inactive; #2 81.7 inactive; #3 87 inactive
Lgals6 (GeneID 16857): #1 39.4 inactive; #2 42.1 inactive; #3 74.3 inactive
